Test results from PubChem BioAssay AID504373 (National Center for Advancing Translational Sciences (NCATS), 2011).
The shares of active, inactive and inconclusive entries below differ from those in the screen. Active and inactive are the calls of the source.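 Rule for the calls: active = fewer circulating green fluorescent tagged thrombocytes in treated fish, with no visible harm to the embryos; inconclusive = compound visibly harmful to the embryos; inactive = no drop in circulating tagged thrombocytes.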

Test: qHTS Assay for Compounds Blocking the Interaction Between CBF-beta and RUNX1 for the Treatment of Acute Myeloid Leukemia: Zebrafish assay for Hematopoiesis, SAR for Probe
Conditions: GFP-cd41 zebrafish embryos, microscopy, 5 days, at 25 µM, active compounds read low
Description: NIH Chemical Genomics Center [NCGC] NIH Molecular Libraries Probe Production centers Network [MLPCN] MLPCN Grant: X01MH083259-01 Assay Submitter (PI): Paul Liu NCGC Assay Overview: Core Binding Factor (CBF) abnormalities are associated with 20-25% of all acute myeloid leukemias (AML), of which 5-10% are further sub classified as acute myelomonocytic leukemia with eosinophilia, also known as M4Eo in the FAB classification scheme. This subtype of leukemia is usually associated with chromosome 16 inversion (p13:q22). Chromosome 16 inversion results in formation of the fusion oncogene CBFB-MYH11, which encodes the fusion protein CBF-beta-SMMHC. […] It has been hypothesized that the interference of CBF-beta and RUNX1 binding could have therapeutic implications for patients with CBF mediated leukemias. We developed a CBF-beta and RUNX1 binding assay in AlphaScreenTM format and optimized it for high throughput screening to search for inhibitors. The goal of this project is to screen MLPCN's compound collection (MLSMR) for identifying the inhibitors of the interaction between CBF-beta and RUNX1 proteins as research probes. […]
Assay protocol: GFP-cd41 zebrafish were kindly provided by the Liu lab. […] Embryos were manually scored under a microscope with GFP illumination for circulating GFP-tagged thrombocytes. […]

| SMILES | fish with circulating GFP thrombocytes |
| --- | --- |
| N[C@@H](CC(=O)O)C(=O)Nc1ccc(Cl)cc1C(=O)c1ccc[nH]1 | inactive: 100% |
| N[C@@H](CO)C(=O)Nc1ccc(Cl)cc1C(=O)c1ccc[nH]1 | inconclusive: 100% |
